Measurements: patent US20210292306A1, “NOVEL INDOLE DERIVATIVE AND ANTI-CANCER CONPOSITION CONTAINING SAME” (KOREA RESEARCH INSTITUTE OF BIOSCIENCE AND BIOTECHNOLOGY, priority 2016, published 2021)

Legend:
Type in all cases: cell-based
K562 = assay: Anti-proliferative activity, multiple drug resistance study (MTT assay), parent line; conditions: Homo sapiens, K562, 96 h
Procedure: (§1) HeLa cells (ATCC, USA), which are a human cervical cancer cell line, were dispensed into a 96-well plate at 2×10^3 cells/well, and the cells were treated with DMSO or the indole derivatives of the present invention, and then allowed to grow for 4 days. And then, MTT (3-(4,5-Dimethylthiazol-2-yl)-2,5-diphenyltetrazolium bromide) reagent was added to the wells at 10 μl/well. After 2 hours, the absorbance was measured at “OD 450” and statistical values were obtained using the plizm6 program. The data represent mean values of the results of two repeated assays (Table 1). Specifically, K562 and MCF7 (Bio Evaluation Center, Korea Research Institute of Bioscience and Biotechnology, Korea), and K562/ADR and MCF7/ADR (Bio Evaluation Center, Korea Research Institute of Bioscience and Biotechnology, Korea), which are multiple drug-resistant cell lines of the above mentioned cell lines, respectively, were cultured on a microtiter plate at 1-3×10^3 cells/well.

MCF7 = assay: as above; conditions: Homo sapiens, MCF7, 96 h
Procedure: as §1

MCF7/ADR = assay: Anti-proliferative activity in cancer cells showing multiple drug resistance (MTT assay); conditions: Homo sapiens, NCI/ADR-RES, 96 h
Procedure: as §1

Structure (SMILES): COc1cc2c(c(OC)c1OC)-c1ccc(OC)c(=O)cc1[C@@H](NC(C)=O)CC2 [colchicine, reference compound]
- IC50 (K562): 15.9 nM
- IC50 (MCF7): 2.71 nM
- IC50 (MCF7/ADR): 92.5 nM
